Here are results for twelve substances from patent publication US10000555B2 (Seattle Genetics, Inc., priority 2005, dated 2018).

The series is described as follows: general procedure: Fmoc solid-phase peptide synthesis; 2-chlorotrityl resin; HATU/DIEA. The settings on record: whole synthesis, TFA salt; for final HPLC purity: Reversed-phase HPLC analysis; for final HPLC purity / isolated yield: scale of the general procedure 0.340 mmol.

On to MeVal-Val-Dil-Dap-2-Chloro-Phe, for which the “final HPLC purity” value is recorded as 96%, the isolated mass was 200 mg and the isolated yield is listed as 67%.
On to “MeVal-Val-Dil-Dap-3-(3-pyridyl)-L-Ala-OH”, for which the “final HPLC purity” value was 98%, the isolated mass worked out at 388.6 mg and the isolated yield was 94%.
For MeVal-Val-Dil-Dap-3-cyclohexyl-L-Ala-OH, in that order: 98%, 343.4 mg and 99%.
The corresponding values for MeVal-Val-Dil-Dap-Boc-p-Amino-Phe-OH are 98%, 210.6 mg and 48%.
On to MeVal-Val-Dil-Dap-Glu(OtBu)-OH, for which the “final HPLC purity” value was 98%, the isolated mass amounted to 219.4 mg and the isolated yield was 55%.
As for MeVal-Val-Dil-Dap-L-4-Thiazolylalanine, the “final HPLC purity” value amounted to 98%, the isolated mass came to 357 mg and the isolated yield is given as 87%.
MeVal-Val-Dil-Dap-L-β-homophe-OH: the “final HPLC purity” value is given as 98%, the isolated mass came to 282.9 mg and the isolated yield was 99%.
Consider MeVal-Val-Dil-Dap-Leu-OH, for which the “final HPLC purity” value worked out at 98%, the isolated mass came to 217.4 mg and the isolated yield turned out to be 62%.
The corresponding values for MeVal-Val-Dil-Dap-Me-Phe-OH are 98%, 62.3 mg and 26%.
For MeVal-Val-Dil-Dap-Met-OH, in that order: 98%, 90.7 mg and 82%.
For MeVal-Val-Dil-Dap-Tic-OH, the “final HPLC purity” value is 98%, the isolated mass worked out at 178.40 mg and the isolated yield stood at 55%.
In the case of MeVal-Val-Dil-Dap-Trp(Boc)-OH, the “final HPLC purity” value was 98%, the isolated mass is reported as 151.7 mg and the isolated yield was 42%.
